Reference: PubChem BioAssay AID652243 (Drosophila RNAi Screening Center, 2013)

- Purpose: 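Knock-downs that decrease or increase androgen receptor reporter signal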 (primary screen)
- Cell system: Drosophila S2R+ cells
- Reagents: long dsRNA against Drosophila genes
- Duration: 72 h (48 h, then 24 h hormone)
- Conditions: synthetic androgen R1881 at 10 nM for 24 h
- Detection: 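Per-well raw luminescence of the androgen-driven firefly reporter and of the Renilla control, two replicates each, without normalisation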
- Reading the numbers: firefly reporter light: higher = more light from androgen-responsive reporter; Renilla control light: higher = more constitutive control signal (cell number, transfection)
- Active means: 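Hit when the log firefly-to-Renilla ratio dropped or increased by a fixed fold versus the mean of GFP or LacZ controls across duplicate plates; lowering cut given as 1.5 and as 3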
- Calls: active = hit: reporter lowered or raised; inactive = no hit
The deposit covers about 24,000 reagents; this is an unselected part of those that have a named target and a result. In the full data, 246 (1%) are marked active. 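Plates not normalised; calls are printed but the firefly/Renilla ratio behind them is not deposited; fold cut for lowering reported inconsistently.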 Raw values are not corrected between plates. The numbers tell different reagents against one gene apart. A plus sign joins genes that one reagent is predicted to hit. The record does not give: the amount of reagent.

Target gene	dsRNA no.	firefly reporter light, replicate 1	firefly reporter light, replicate 2	Renilla control light, replicate 1	Renilla control light, replicate 2	activity call
CG4892	1	1.31e5	1.25e5	1.10e6	1.09e6	inactive
CG30460	1	1.04e5	1.15e5	2.18e6	2.18e6	inactive
CG30460	2	8.13e5	9.61e5	1.54e6	1.97e6	inactive
topi	1	63257	94123	1.33e6	1.83e6	inactive
eIF2A	1	45730	56231	3.30e5	4.35e5	inactive
CG42271	1	66790	1.20e5	2.63e5	6.10e5	inactive
CG42271	2	5.65e5	1.08e6	2.26e6	2.40e6	inactive
CG42271	3	1.85e5	2.74e5	4.90e5	5.74e5	inactive
CG42271	4	5.48e5	5.61e5	7.82e5	8.37e5	inactive
CG42271	5					inactive
Abl	1	2.35e5	2.49e5	2.57e6	1.87e6	active
Abl	2	5.97e5	6.70e5	2.90e5	3.30e5	active
Abl	3					inactive
Abl	4					inactive
CG7650	1	3.68e5	7.48e5	1.05e6	2.00e6	inactive
CG7650	2	4.09e5	3.24e5	1.14e6	1.16e6	inactive
dpr9	1	1.08e5	1.60e5	9.98e5	1.30e6	inactive
dpr9	2	53083	80066	1.44e6	1.61e6	inactive
dpr9	3	94633	38118	1.34e6	6.98e5	inactive
dpr9	4	3.85e5	3.84e5	4.61e5	5.03e5	inactive
CG34181	1	7.28e5	6.78e5	1.57e6	1.25e6	inactive
CG2225	1	7.97e5	7.77e5	1.69e6	2.09e6	inactive
CG2225	2	2.95e5	3.95e5	1.86e6	2.00e6	inactive
DAAM	1	3.81e5	4.41e5	2.20e6	3.11e6	inactive
CG32284	1	1.42e5	1.84e5	2.23e5	2.46e5	inactive
CG30480	1	37840	78984	1.13e6	1.13e6	inactive
CG30480	2	4.64e5	4.62e5	1.36e6	1.50e6	inactive
CG13437	1	1.12e5	1.43e5	1.21e6	1.52e6	inactive
ATPsyngamma	1	1.12e5	1.07e5	1.15e6	1.23e6	inactive
pncr008:3L (retired record)	1	5.61e5	5.98e5	1.42e6	1.69e6	inactive
pncr008:3L (retired record)	2	8.85e5	6.23e5	1.89e6	1.47e6	inactive
CG14589	1	3.05e5	3.23e5	1.76e6	1.98e6	inactive
Cap-D3	1	91113	73982	9.14e5	9.82e5	inactive
Cap-D3	2	3.67e5	2.74e5	8.83e5	5.96e5	inactive
kat80	1	4.26e5	4.25e5	2.56e6	3.06e6	inactive
kat80	2	4.06e5	3.42e5	2.81e6	2.10e6	inactive
CR40282	1	57393	96932	7.68e5	9.72e5	inactive
DUBAI	1	8.03e5	2.06e5	7.15e5	5.60e5	inactive
vir-1	1	1.44e5	1.42e5	9.61e5	1.14e6	inactive
vir-1	2	80676	77077	8.09e5	9.39e5	inactive
vir-1	3	7.87e5	7.70e5	7.09e5	5.73e5	inactive
dos	1	16928	38733	96333	1.33e5	inactive
dos	2	68252	30478	5.98e5	4.71e5	inactive
dos	3	5.41e5	4.97e5	3.66e5	2.96e5	inactive
bif	1	1.08e6	5.83e5	1.95e6	9.86e5	inactive
bif	2	79651	90978	6.93e5	5.79e5	inactive
bif	3	2.91e5	4.96e5	6.81e5	1.10e6	inactive
140up	1	1.25e5	50642	4.89e5	5.89e5	inactive
140up	2	6.16e5	6.65e5	1.35e6	1.36e6	inactive
Naxd	1	40237	28727	3.36e5	2.15e5	inactive
CG5391	1	2.41e5	2.23e5	2.71e6	3.07e6	inactive
porin	1	7.39e5	8.13e5	1.67e6	2.13e6	inactive
porin	2	5.28e5	4.33e5	6.28e5	7.56e5	inactive
smg	1	5.23e5	6.20e5	1.01e6	1.10e6	inactive
smg	2	3.36e5	3.90e5	9.06e5	7.26e5	inactive
CG7879	1	2.69e5	2.56e5	5.25e5	5.07e5	inactive
CG7879	2	6.68e5	5.90e5	7.80e5	9.67e5	inactive
CG9512	1	1.09e5	52393	5.14e5	5.21e5	inactive
Lst8	1	1.16e5	1.05e5	6.18e5	7.74e5	inactive
CG6432	1	87108	60112	5.97e5	4.79e5	inactive
obst-F	1	2.21e5	2.39e5	1.72e6	1.92e6	inactive
obst-F	2	7.00e5	1.05e6	1.42e6	1.60e6	inactive
CG31259	1	1.12e5	68290	2.17e6	1.47e6	inactive
CG14309	1	1.34e5	2.29e5	1.65e6	1.78e6	inactive
CG12795	1	1.57e5	1.24e5	1.16e6	1.39e6	inactive
CG31206	1	4.03e5	2.38e5	34933	1.53e5	inactive
AttD	1	3.30e5	3.15e5	1.90e6	2.72e6	inactive
CG10638	1	1.78e5	1.24e5	1.79e6	1.57e6	inactive
CG10638	2	6.19e5	5.46e5	1.38e6	1.56e6	inactive
mod(mdg4) + pre-mod(mdg4)-U	1	2.48e5	2.24e5	4.73e5	5.99e5	inactive
sll	1	90312	70025	3.84e5	3.85e5	inactive
sll	2	1.11e6	1.01e6	1.17e6	1.27e6	inactive
fig	1	1.16e5	1.39e5	1.90e6	2.29e6	inactive
fig	2	4.95e5	5.58e5	9.46e5	6.64e5	inactive

Only “firefly reporter light, replicate 1” (5 entries from above):
140up #1	1.25e5
140up #2	6.16e5
Naxd	40237
CG5391	2.41e5
porin #1	7.39e5
